The values below come from publication PMC4549061.

Sequences of proteins named here, by UniProt entry; tags and fusion partners are left off. A change or cut given only in a name is not applied to a line headed by its entry.
UniProt Q04735: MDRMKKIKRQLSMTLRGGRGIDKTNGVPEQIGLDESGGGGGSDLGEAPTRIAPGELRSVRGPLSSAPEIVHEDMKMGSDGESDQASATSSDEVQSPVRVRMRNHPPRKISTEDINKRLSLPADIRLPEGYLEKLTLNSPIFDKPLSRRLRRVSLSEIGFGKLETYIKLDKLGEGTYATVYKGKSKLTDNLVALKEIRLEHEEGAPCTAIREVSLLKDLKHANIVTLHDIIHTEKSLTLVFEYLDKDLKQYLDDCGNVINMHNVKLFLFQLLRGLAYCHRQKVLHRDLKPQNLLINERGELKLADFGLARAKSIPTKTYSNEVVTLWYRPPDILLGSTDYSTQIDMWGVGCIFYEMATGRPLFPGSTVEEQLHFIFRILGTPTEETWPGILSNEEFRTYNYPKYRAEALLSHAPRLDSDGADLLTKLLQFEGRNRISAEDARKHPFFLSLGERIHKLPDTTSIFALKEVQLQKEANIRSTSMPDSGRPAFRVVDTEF
UniProt D3YUJ3: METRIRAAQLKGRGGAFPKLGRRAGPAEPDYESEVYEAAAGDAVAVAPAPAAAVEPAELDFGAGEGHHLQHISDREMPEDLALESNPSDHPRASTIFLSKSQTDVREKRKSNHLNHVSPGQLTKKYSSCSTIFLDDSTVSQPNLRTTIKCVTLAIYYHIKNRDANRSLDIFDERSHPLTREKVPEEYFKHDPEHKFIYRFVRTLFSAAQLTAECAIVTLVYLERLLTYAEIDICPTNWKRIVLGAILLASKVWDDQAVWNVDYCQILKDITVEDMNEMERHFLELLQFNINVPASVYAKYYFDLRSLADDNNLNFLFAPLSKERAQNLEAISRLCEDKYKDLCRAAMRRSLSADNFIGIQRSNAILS

No constants are given. Whether binding was seen depends on the method and setting. In cells and extracts the contact can be indirect.

This assay deals with CDK16-Flag PCTAIRE mutant (PCTAIRE was mutated to ACAAIAA) (mouse) (UniProt Q04735). Put plainly: co-IP; HEK293T cells co-transfected with HA- and Flag-tagged plasmids; lysed in IP buffer (150mM NaCl, 50mM Tris, 1mM EGTA, 0.2% NP-40); anti-HA or anti-Flag conjugated agarose, 4°C, 2 hours; western blot.

“CCNYL1-HA (N-terminal HA-tagged Cyclin Y-like 1) (from UniProt D3YUJ3 1-367)”: the binding result is recorded as “no binding”.
